# PubChem BioAssay AID602196 | INSERM | 2012
# Purpose: 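Modifiers of cisplatin sensitivity in A549 cells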
# System: human A549 lung cancer cells
# Reagent: siRNA pair against human genes
# Duration: 48 h transfection before cisplatin; time from cisplatin to read-out not stated
# Challenge: cisplatin at a dose killing half of control-siRNA cells; exact dose and duration not given
# Read-out: 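Cisplatin cell death as a shift from the 50% death seen with control siRNA; siRNAs toxic or growth-blocking alone scored 0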
# Reading the numbers: two-siRNA summed score (-2 to +2): higher = both siRNAs protect from cisplatin killing; -2 means both sensitise; mean protection from cisplatin (shift in death) and protection from cisplatin (shift in death), siRNA C and protection from cisplatin (shift in death), siRNA D: higher = protection from cisplatin killing
# Rule for the call: 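siRNAs harmful alone (LDH or WST-1) get 0; others get +1 for less and -1 for more cisplatin killing; genes are active when the two siRNAs give the same sign, summing to ±2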
# Meaning of the calls: active = both siRNAs shift cisplatin killing the same way; inactive = no consistent shift, or siRNA harmful alone
# The whole screen tested about 23,000 reagents; shown is a random part of them. 455 of all reagents (2%) count as active. 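Active includes both protection and sensitisation; some change values fall well beyond the stated -50 to +50 range.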 Unmarked entries are inactive. The numbers tell different reagents against one gene apart. No sequences are given here. Not stated in the record: the amount of reagent.
Target gene,reagent,two-siRNA summed score (-2 to +2),mean protection from cisplatin (shift in death) (%),"protection from cisplatin (shift in death), siRNA C (%)","protection from cisplatin (shift in death), siRNA D (%)"
DNM1DN11-7 (DNM1DN11.7 duplicon),1,2 (active),15.9,17,14.8
SGO2 (shugoshin 2),1,0,1.2,0.5,1.9
RELCH,1,0,1.1,12.3,-10.2
FERMT3 (FERM domain containing kindlin 3),1,1,15.7,21.7,9.7
CACNG5 (calcium voltage-gated channel auxiliary subunit gamma 5),1,0,-9.3,-26.2,7.6
TCEAL8 (transcription elongation factor A like 8),1,0,2.9,11.1,-5.2
WWP1 (WW domain containing E3 ubiquitin protein ligase 1),1,0,5.5,7.7,3.3
KCNMB1,1,-1,-6.7,-16.9,3.5
BEND7 (BEN domain containing 7),1,0,10.4,7.8,13.1
CA3 (carbonic anhydrase 3),1,0,4.2,-0.6,9
"ANKRD18DP (ankyrin repeat domain 18D, pseudogene)",1,1,11,14,8.1
ASXL2 (ASXL transcriptional regulator 2),1,0,0.8,6,-4.4
NDUFAF6 (NADH:ubiquinone oxidoreductase complex assembly factor 6),1,1,13,19.1,7
ARPC5L (actin related protein 2/3 complex subunit 5 like),1,0,-7.5,-6.5,-8.5
VAV3 (vav guanine nucleotide exchange factor 3),1,-1,-10.3,4,-24.6
LOC440349,1,0,14.4,1.4,27.4
IL18BP (interleukin 18 binding protein),1,0,7.3,18.5,-3.9
BPIFB1 (BPI fold containing family B member 1),1,1,26.4,32.8,20
GNG7 (G protein subunit gamma 7),1,0,-12.3,-7.3,-17.3
SLC43A1,1,0,11.1,11.1,11
RPS3 (ribosomal protein S3),1,0,28.4,19.1,37.7
KRTAP12-2 (keratin associated protein 12-2),1,0,17.2,-1.6,35.9
LIPM (lipase family member M),1,-1,-6,-8.8,-3.3
LOC388361,1,0,5.9,-4.2,16
LY6H (lymphocyte antigen 6 family member H),1,-1,-4.7,3.7,-13.1
LOC441031,1,1,11,18.1,4
LOC402340,1,1,15.2,22.9,7.4
LOC440576,1,0,8,12.1,3.8
AADAT (aminoadipate aminotransferase),1,0,4.8,8.7,1
NUCKS1,1,1,6.3,12.6,-0.1
LCN10 (lipocalin 10),1,1,16.9,13,20.8
NPIPB12 (nuclear pore complex interacting protein family member B12),1,0,17.6,31.4,3.7
SERP1 (stress associated endoplasmic reticulum protein 1),1,0,10,14.2,5.9
LOC400571,1,0,13.1,12.6,13.5
RIDA (reactive intermediate imine deaminase A),1,-1,-5.7,2.7,-14
KRTAP19-3 (keratin associated protein 19-3),1,1,11,10,12
LOC387950,1,0,4.6,4.6,4.7
NME5 (NME/NM23 family member 5),1,0,5.7,6,5.5
LOC440386 (retired record),1,1,5.8,-2.1,13.6
CYB5B (cytochrome b5 type B),1,0,6.6,11,2.3
LOC440760,1,0,-3.1,-4,-2.2
OR13C8 (olfactory receptor family 13 subfamily C member 8),1,1,7.2,18.4,-4
WBP2NL (WBP2 N-terminal like),1,0,6.4,5.3,7.4
ETHE1 (ETHE1 persulfide dioxygenase),1,0,-4.3,-12.2,3.6
LOC388688,1,0,2.2,8.9,-4.5
LOC390414,1,0,11,17.1,4.9
DHX30 (DExH-box helicase 30),1,-1,-1.1,-20.3,18.1
PDPK1 (3-phosphoinositide dependent protein kinase 1),1,0,-2.3,5.4,-10
DCTD (dCMP deaminase),1,0,-1.9,0.8,-4.5
DCTD (dCMP deaminase),2,0,6.4,13.5,-0.6
CD207 (CD207 molecule),1,0,6.8,13.3,0.4
RAI2 (retinoic acid induced 2),1,0,7.4,4.9,9.8
LOC440609,1,0,9.6,-0.2,19.4
PATJ (PATJ crumbs cell polarity complex component),1,-1,-4,10.7,-18.6
STX1A (syntaxin 1A),1,-2 (active),-21.7,-26.4,-16.9
NDUFA2 (NADH:ubiquinone oxidoreductase subunit A2),1,0,-11.1,2.4,-24.6
BAMBI (BMP and activin membrane bound inhibitor),1,0,4,1,7.1

Targets above whose target name begins with S or s (4):
Target gene,reagent,two-siRNA summed score (-2 to +2),mean protection from cisplatin (shift in death) (%),"protection from cisplatin (shift in death), siRNA C (%)","protection from cisplatin (shift in death), siRNA D (%)"
SGO2 (shugoshin 2),1,0,1.2,0.5,1.9
SLC43A1,1,0,11.1,11.1,11
SERP1 (stress associated endoplasmic reticulum protein 1),1,0,10,14.2,5.9
STX1A (syntaxin 1A),1,-2 (active),-21.7,-26.4,-16.9
